Results are given in words; binding and its absence hold for the method and conditions named. In cells and extracts the contact can be indirect. A result given as binding can be weak or reduced; the word gives no strength.
Target: Tspan8 (rat (endogenous in rat tumor lines))
Assay: co-IP; co-immunoprecipitation of exosome lysates from rat tumor lines

Amino acid sequences for entries named in this document (tags omitted). Residues count along the entry.
UniProt Q64632, residues 28-1807: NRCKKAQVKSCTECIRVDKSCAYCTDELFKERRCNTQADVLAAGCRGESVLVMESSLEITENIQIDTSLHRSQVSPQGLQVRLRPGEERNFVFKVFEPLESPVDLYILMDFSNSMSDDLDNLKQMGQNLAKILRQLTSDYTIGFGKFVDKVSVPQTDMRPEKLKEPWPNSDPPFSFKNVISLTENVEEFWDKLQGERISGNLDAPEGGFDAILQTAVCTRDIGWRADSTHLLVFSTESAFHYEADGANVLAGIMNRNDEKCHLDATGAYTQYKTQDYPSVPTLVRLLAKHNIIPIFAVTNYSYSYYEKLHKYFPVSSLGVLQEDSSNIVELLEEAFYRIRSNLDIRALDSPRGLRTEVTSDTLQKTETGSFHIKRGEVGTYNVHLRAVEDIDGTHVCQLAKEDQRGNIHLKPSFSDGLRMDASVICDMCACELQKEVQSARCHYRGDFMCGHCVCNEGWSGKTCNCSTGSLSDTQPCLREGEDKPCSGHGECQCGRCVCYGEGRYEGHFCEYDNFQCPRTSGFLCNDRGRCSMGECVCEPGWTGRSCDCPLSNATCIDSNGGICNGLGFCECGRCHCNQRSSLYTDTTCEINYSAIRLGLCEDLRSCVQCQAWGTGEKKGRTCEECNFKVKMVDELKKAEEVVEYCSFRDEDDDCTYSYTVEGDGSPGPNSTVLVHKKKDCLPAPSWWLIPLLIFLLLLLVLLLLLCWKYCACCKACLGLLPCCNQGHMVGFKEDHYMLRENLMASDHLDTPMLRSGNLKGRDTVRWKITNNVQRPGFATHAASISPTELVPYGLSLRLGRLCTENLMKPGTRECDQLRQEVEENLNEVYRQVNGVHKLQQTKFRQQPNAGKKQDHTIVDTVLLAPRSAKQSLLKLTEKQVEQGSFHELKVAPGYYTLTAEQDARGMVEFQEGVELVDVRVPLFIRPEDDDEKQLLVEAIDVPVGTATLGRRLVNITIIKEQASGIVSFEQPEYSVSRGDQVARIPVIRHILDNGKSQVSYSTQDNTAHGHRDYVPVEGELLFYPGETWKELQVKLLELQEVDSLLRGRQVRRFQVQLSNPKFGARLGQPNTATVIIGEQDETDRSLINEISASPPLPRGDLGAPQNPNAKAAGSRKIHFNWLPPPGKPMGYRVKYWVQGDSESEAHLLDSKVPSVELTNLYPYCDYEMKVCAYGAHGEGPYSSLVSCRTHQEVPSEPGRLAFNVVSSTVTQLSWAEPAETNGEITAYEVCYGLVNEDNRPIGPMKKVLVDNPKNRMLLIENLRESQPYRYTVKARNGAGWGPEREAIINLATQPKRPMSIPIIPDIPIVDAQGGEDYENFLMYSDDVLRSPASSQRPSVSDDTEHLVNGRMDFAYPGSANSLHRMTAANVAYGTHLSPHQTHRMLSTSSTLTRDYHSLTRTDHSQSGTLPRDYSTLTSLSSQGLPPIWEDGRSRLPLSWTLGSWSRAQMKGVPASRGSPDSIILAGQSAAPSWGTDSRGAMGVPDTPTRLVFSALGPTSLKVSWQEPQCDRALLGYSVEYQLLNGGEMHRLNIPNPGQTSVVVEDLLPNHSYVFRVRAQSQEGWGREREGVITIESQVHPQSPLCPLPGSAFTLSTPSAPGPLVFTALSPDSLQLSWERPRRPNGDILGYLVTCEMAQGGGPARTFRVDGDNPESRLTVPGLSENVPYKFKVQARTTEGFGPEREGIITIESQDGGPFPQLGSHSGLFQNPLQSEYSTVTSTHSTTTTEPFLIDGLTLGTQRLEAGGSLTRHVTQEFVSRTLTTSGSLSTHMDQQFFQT

- binding: binds
Substance: beta4 integrin chain (from UniProt Q64632 28-1807)

— paper PMC3760632
